Reference: article PMC7534311, “Sulphonamide inhibition profile of Staphylococcus aureus β-carbonic anhydrase” (Journal of Enzyme Inhibition and Medicinal Chemistry, 2020)

Assays:
[1] = target: hCA VA; settings: read-out: Ki (AAZ) hCA VA; Table 1; cited from earlier work
[2] = target: hCA VB; settings: read-out: Ki (AAZ) hCA VB; Table 1; cited from earlier work
[3] = target: hCA XIV; settings: read-out: Ki (AAZ) hCA XIV; Table 1; cited from earlier work
[4] = target: Burkholderia pseudomallei β-CA; settings: read-out: Ki (AAZ) Burkholderia pseudomallei β-CA; Table 1; cited from earlier work
[5] = target: T1, SauBCA (β-carbonic anhydrase from Staphylococcus aureus) (Staphylococcus aureus, UniProt A0AAJ4SIE8); experiment: Stopped-flow CO2 hydration inhibition assay, SauBCA; assay type: biochemical; settings: recombinant SauBCA, mean from three assays, errors ±5–10%
T1 sequence (A0AAJ4SIE8 1-189): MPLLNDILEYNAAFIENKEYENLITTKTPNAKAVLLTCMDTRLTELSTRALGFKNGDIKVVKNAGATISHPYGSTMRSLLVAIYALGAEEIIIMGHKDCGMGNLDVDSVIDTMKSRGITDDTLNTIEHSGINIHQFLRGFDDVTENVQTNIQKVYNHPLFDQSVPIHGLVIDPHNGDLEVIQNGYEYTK
Experimental: An Applied Photophysics stopped-flow instrument was used for assaying CA-catalysed CO2 hydration activity. […] Six traces of the initial 5 − 10% of the reaction were used to determine the initial velocity. The uncatalysed rates were determined in the same manner and subtracted from the total observed rates. A stock solution of inhibitor (0.1 mM) was prepared in distilled-deionized water, and dilutions of up to 0.01 nM were prepared thereafter with distilled-deionized water. Inhibitor (I) and enzyme (E) solutions were preincubated together for 15 min at RT prior to the assay to allow formation of the E − I complex. Inhibition constants were obtained by using the Cheng-Prusoff equation and nonlinear least squares methods (with PRISM 3) and are presented as the means from at least three different determinations. Kinetic constants were obtained using Lineweaver-Burke plots as reported earlier.

CC(=O)Nc1nnc(S(N)(=O)=O)s1 [AAZ, acetazolamide]
Ki [1]: 63 nM
Ki [2]: 54 nM
Ki [3]: 41 nM
Ki [4]: 745 nM

CCN[C@H]1C[C@H](C)S(=O)(=O)c2sc(S(N)(=O)=O)cc21 [DZA, dorzolamide]
Ki [5]: 909 nM
